Assay results published in PubChem BioAssay AID2685 (National Center for Advancing Translational Sciences (NCATS), 2010).
The other results are listed elsewhere or left out. The main result of the screen is listed elsewhere. These columns were measured beside it and carry no call. Most of these compounds were active or inconclusive in the main read-out, so they are no random draw. The note in brackets gives the kind of curve behind each potency; many fits are weak.

Test: qHTS Assay for Lipid Storage Modulators in Drosophila S3 Cells;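 as to cell number change: cells counted by Cell Tracker Red CMTPX staining in the red channel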
Settings: BODIPY lipid droplet fluorescence, 18-24 h; for cell number change: measured here: cell count max response, cells fed with added oleic acid
Method in brief: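 Drosophila S3 cells loaded with oleic acid (400 uM, as added) and compounds at several concentrations; lipid droplets imaged by 488-nm laser-scanning cytometry, 500–530 nm intensity and object ratio to cell channel. Percent activity normalized to 20 uM Triacsin C.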

[1] = measured here: lipid fluorescence (Fed channel) AC50, cells fed with added oleic acid
[2] = measured here: cell number channel AC50, cells fed with added oleic acid

With `CN1CCN(C(=O)CN(C)S(=O)(=O)c2ccc(F)cc2)CC1` the AC50 [1] was 6.31 µM [falling, single point].

For `Cn1c(=O)c(/C(N)=N/OC(=O)c2ccccc2)cn(-c2ccccc2)c1=O`, the cell number change was -56.1%, the AC50 [2] was 2.31 µM [falling, full curve] and the AC50 [1] was 4.11 µM [falling, full curve].

With `CC(Sc1nc(N)cc(=O)[nH]1)C(=O)NC1CCCCC1` (stereo not drawn) the cell number change was -8.99% and the AC50 [2] was 0.00517 µM [falling, full curve, poor fit].

With `CCC(C)(C)c1nnc(NC(=O)c2cccc([N+](=O)[O-])c2)s1` the cell number change was -6.31% and the AC50 [2] was 0.731 µM [falling, full curve, poor fit].

In the case of `CSc1ccccc1NC(=O)NCCCl`, the cell number change is reported as -116%, the AC50 [2] is reported as 16.4 µM [falling, partial curve] and the AC50 [1] is reported as 16.4 µM [falling, partial curve].

For `CCOc1ccccc1C(=O)Nc1cccc(-c2ccc(N3CCOCC3)nn2)c1`, the cell number change was 12.3% and the AC50 [1] was 6.51 µM [rising, single point].

With `FC(F)(F)c1ccccc1CNCc1ccc2c(c1)OCO2` the cell number change was 13%.

With `COc1ccc(OC)c(NC(=O)CCN2CCN(CCO)CC2)c1` the cell number change was 10.8% and the AC50 [1] was 29.1 µM [rising, single point].

With `CCn1c(-c2ccccc2Cl)nn(CC(=O)Nc2ccc(OC)cc2)c1=S` the cell number change was -13.1% and the AC50 [2] was 1.64 µM [rising, partial curve, poor fit].

For `O=[N+]([O-])c1ccc(/C([O-])=C(/C(=S)Nc2ccccc2F)[n+]2ccccc2)cc1`, the cell number change was -37.6%, the AC50 [2] was 2.31 µM [falling, full curve] and the AC50 [1] was 0.116 µM [falling, full curve].

Work on `Cc1ccc(/C=N/NC(=O)c2ccncc2)s1` yielded a cell number change of 33%.

In the case of `COc1cccc(-c2noc(CCCC(=O)NC3CCCC3)n2)c1`, the cell number change is reported as -5.37% and the AC50 [1] is reported as 0.731 µM [falling, single point].

Molecule `O=C(NCCO)c1ccc2nc(-c3ccco3)c(-c3ccco3)nc2c1` has a cell number change of 25.7%.

In the case of `Cc1sc2ncnc(NCC(c3ccco3)N3CCCC3)c2c1C` (stereo not drawn), the cell number change is reported as -4.9% and the AC50 [1] is reported as 2.06 µM [falling, partial curve].

For `O=C(COC(=O)C(O)c1ccccc1)NC12CC3CC(CC(C3)C1)C2` (stereo not drawn), the cell number change was -6.8% and the AC50 [1] was 5.8 µM [falling, full curve, poor fit].

With `Cc1c(C(=O)N2CCC(n3nccc3NC(=O)C3CC3)CC2)[nH]c2ccc(Cl)cc12` the cell number change was 5.38%, the AC50 [2] was 4.61 µM [rising, single point] and the AC50 [1] was 29.1 µM [falling, single point].

Work on `CN1C(=O)C(C)(C)c2cc(S(=O)(=O)N3CCC(C(=O)Nc4ccc(Cl)cc4)CC3)ccc21` yielded a cell number change of -1.8%.

For `CCc1cc2c(SCC(=O)C(C#N)=C3N(C)c4ccccc4N3C)ncnc2s1`, the cell number change was 56.3%, the AC50 [2] was 20.6 µM [rising, partial curve, poor fit] and the AC50 [1] was 20.6 µM [rising, partial curve].

With `COc1ccc(C2=NN(C(=O)c3ccncc3)C(c3ccccc3O)C2)cc1` (stereo not drawn) the cell number change was 6.67% and the AC50 [1] was 4.61 µM [rising, partial curve].

Work on `O=C(Oc1cccc2cccnc12)c1ccc(Br)o1` yielded a cell number change of -4.56%.

In the case of `Cn1c(CCNC(=O)c2cc(COc3ccc(F)c(F)c3)on2)nc2ccccc21`, the cell number change is reported as -7.31% and the AC50 [1] is reported as 0.651 µM [falling, single point].

In the case of `CCOC(=O)N1CCC(NC(=O)c2ccc3c(c2)sc2nc(-c4cccc(OC)c4)cn23)CC1`, the cell number change is reported as -34.5%, the AC50 [2] is reported as 18.4 µM [falling, single point] and the AC50 [1] is reported as 20.6 µM [falling, single point].

In the case of `Cc1cccnc1NC(=O)Nc1cccc2ccccc12`, the cell number change is reported as 94.7%, the AC50 [2] is reported as 2.31 µM [rising, full curve] and the AC50 [1] is reported as 7.31 µM [rising, partial curve].

In the case of `Cc1ccc(-c2csc(NC(=O)c3ccc(S(=O)(=O)N4CCc5ccccc54)cc3)n2)cc1`, the cell number change is reported as 16.4% and the AC50 [1] is reported as 1.16 µM [rising, full curve, poor fit].

In the case of `CCc1ccc(-n2nnnc2SCC(=O)Nc2ccc(NC(C)=O)cc2)cc1`, the cell number change is reported as 16.1% and the AC50 [1] is reported as 16.4 µM [falling, single point].

For `COc1ccccc1CC(=O)Nc1ccc(-c2noc(COc3ccc(Br)cc3)n2)cc1`, the AC50 [2] was 0.651 µM [rising, single point].

For `CN(C)C=Nc1ncc2c3ccccc3n(CCN(C)C)c2c1C#N`, the cell number change was 1.55% and the AC50 [1] was 1.64 µM [rising, full curve, poor fit].

Molecule `COC(=O)C1=C(C)N(C)C(=S)N(C)C1c1cccc(Br)c1` (stereo not drawn) has a cell number change of -36.2%.

In the case of `Cc1ccc(C)c(S(=O)(=O)N2CCN(C(=O)CN3C(=O)C4CC=CCC4C3=O)CC2)c1` (stereo not drawn), the AC50 [1] is reported as 11.6 µM [rising, single point].

For `NNC(=O)c1ccc(CN2C(=O)c3cccc4cccc2c34)cc1`, the cell number change was 55.3% and the AC50 [1] was 10.3 µM [rising, partial curve].

With `Cc1nc(CNS(=O)(=O)c2ccc3ccccc3c2)cs1` the cell number change was 50.6%, the AC50 [2] was 29.1 µM [rising, single point] and the AC50 [1] was 11.6 µM [rising, partial curve].

For `Cc1ccc2nc(Cl)c(/C=N/Nc3nc(C)cc(C)n3)c(=O)n2c1`, the cell number change was -3.29% and the AC50 [1] was 25.9 µM [falling, single point].

For `Cc1ccc(NC(=O)c2ccco2)c(NC(=O)c2ccccc2C)c1`, the cell number change was -1.39% and the AC50 [1] was 29.1 µM [rising, partial curve, poor fit].

`Cc1ccc(/C=C/c2nc3ccccc3s2)s1` showed a cell number change of -0.516%.

For `O=[N+]([O-])c1cccc(-n2nnnc2CN2CCCC2)c1`, the cell number change was 15% and the AC50 [1] was 2.91 µM [rising, full curve, poor fit].

For `COCCNC(=O)COC(=O)c1ccc(OCC(=O)Nc2ccccc2OC)c(OC)c1`, the cell number change was -152%, the AC50 [2] was 29.1 µM [falling, single point] and the AC50 [1] was 29.1 µM [falling, single point].

In the case of `COC(=O)c1cc(NC(=O)CN2C(=O)C(=O)N(C3CCCC3)C2=O)cc(C(=O)OC)c1`, the cell number change is reported as -2.33% and the AC50 [1] is reported as 20.6 µM [falling, single point].

`CCOC(=O)c1cc(NC(=O)c2ccc(Cl)cc2)c(=O)n2c1oc1ccc(Cl)cc12` showed a cell number change of -36.6%.

`COCCOC(=O)c1c(C)oc2ccc(NS(=O)(=O)c3ccc(C(=O)O)cc3)cc12` gave a cell number change of -10.1%.

For `CC(NC(=O)CN(C)Cc1cccc(F)c1)c1ccccc1` (stereo not drawn), the cell number change was 48.6%, the AC50 [2] was 25.9 µM [rising, single point] and the AC50 [1] was 0.58 µM [falling, single point].

For `Cc1ccccc1N1CCN(C2=NC(=O)/C(=C\c3cccs3)S2)CC1`, the cell number change was 49.3% and the AC50 [2] was 3.26 µM [rising, partial curve].

For `Cc1ccccc1C(=O)NNC(=O)C1CC(=O)N(c2ccc3c(c2)OCCO3)C1` (stereo not drawn), the cell number change was 14.1% and the AC50 [1] was 23.1 µM [rising, partial curve, poor fit].

`CC(C)c1ccccc1NC(=O)C1CCCN(C(=O)c2ccc(Cl)cc2)C1` (stereo not drawn) showed a cell number change of -19.7%.

In the case of `COC(=O)c1cc(Br)ccc1NC(=O)Nc1ccccc1`, the cell number change is reported as 8.81% and the AC50 [1] is reported as 5.17 µM [rising, full curve, poor fit].

For `CC1N/C(=C\C(=O)c2ccccc2)N(O)C1(C)C` (stereo not drawn), the cell number change was -15% and the AC50 [1] was 1.16 µM [falling, single point].

With `Cc1occc1C(=O)Nc1cc(S(=O)(=O)N2CCOCC2)ccc1OC(C)C` the cell number change was 3.48% and the AC50 [1] was 29.1 µM [rising, single point].

With `CNc1ccc(C(=O)N2CCN(S(=O)(=O)c3ccc4c(c3)OCCCO4)CC2)cc1[N+](=O)[O-]` the cell number change was -16.3%, the AC50 [2] was 0.184 µM [rising, partial curve, poor fit] and the AC50 [1] was 29.1 µM [falling, single point].

In the case of `CC(C(=O)Nc1ccc(F)cc1Cl)N(C)CCOc1ccccc1` (stereo not drawn), the cell number change is reported as 9.72% and the AC50 [1] is reported as 29.1 µM [falling, single point].

In the case of `Cc1ccc(NS(=O)(=O)c2ccc(-c3csc(C)n3)s2)c(C)c1`, the cell number change is reported as 37.6%, the AC50 [2] is reported as 6.51 µM [rising, full curve] and the AC50 [1] is reported as 0.517 µM [rising, full curve].

In the case of `CCN1C(=NCc2ccc(OC)cc2)N[C@@H](c2ccccc2)C(C(=O)OC)=C1C`, the cell number change is reported as 21.3% and the AC50 [1] is reported as 32.6 µM [rising, partial curve, poor fit].

For `O=S(=O)(c1ccc(F)cc1)n1ccc(-c2cccc(OCc3ccc(Cl)cc3Cl)c2)n1`, the cell number change was 58.3% and the AC50 [2] was 18.4 µM [rising, partial curve].

With `COc1cc(OC)c(-n2cc(-c3ccc(Cl)cc3)[nH]c2=O)cc1Cl` the cell number change was 4.03% and the AC50 [1] was 23.1 µM [rising, single point].

Work on `CN1CCN(c2ccc(NC(=O)c3ccco3)cc2Cl)CC1` yielded a cell number change of 36.4%.

In the case of `CCN(CC(=O)Nc1ccc(NC(C)=O)cc1)C(=O)Cc1ccc(S(=O)(=O)N2CCOCC2)s1`, the cell number change is reported as -2.56% and the AC50 [1] is reported as 2.91 µM [rising, single point].

In the case of `O=S(=O)(c1ccccc1F)N1CCN(CC(O)c2ccccc2)CC1` (stereo not drawn), the cell number change is reported as 60% and the AC50 [1] is reported as 29.1 µM [rising, partial curve, poor fit].

In the case of `O=C(C1CC1)N(CCN(Cc1ccccc1)C(=O)C1CC1)Cc1ccccc1`, the cell number change is reported as -10.1% and the AC50 [1] is reported as 0.116 µM [rising, full curve, poor fit].

For `Cc1ccc(N2C(=O)CC(Nc3ccccc3)C2=O)cc1` (stereo not drawn), the cell number change was -41.1%, the AC50 [2] was 3.66 µM [falling, full curve] and the AC50 [1] was 29.1 µM [falling, single point].

For `CCN(CC)C(=O)C1=C(C)NC(=O)NC1c1c(F)cccc1Cl` (stereo not drawn), the cell number change was -43.5%, the AC50 [2] was 2.31 µM [falling, full curve] and the AC50 [1] was 4.11 µM [falling, full curve].

In the case of `Cc1ccc(OCC(=O)Nc2nnc(-c3ccco3)s2)cc1`, the cell number change is reported as 13.9% and the AC50 [1] is reported as 23.1 µM [rising, partial curve, poor fit].
